Test results from US20260183367A1.
Results are given in words; binding and its absence hold for the method and conditions named. Binding seen in cells or lysates may run through a third protein. Some results given as binding are weak or reduced against the parent protein; the word gives no strength. Sequences can lack the tags named with a protein.

By UniProt entry, the sequences of proteins in these tests, tags left out. Residues count along the entry.
UniProt P49790, residues 2-1475: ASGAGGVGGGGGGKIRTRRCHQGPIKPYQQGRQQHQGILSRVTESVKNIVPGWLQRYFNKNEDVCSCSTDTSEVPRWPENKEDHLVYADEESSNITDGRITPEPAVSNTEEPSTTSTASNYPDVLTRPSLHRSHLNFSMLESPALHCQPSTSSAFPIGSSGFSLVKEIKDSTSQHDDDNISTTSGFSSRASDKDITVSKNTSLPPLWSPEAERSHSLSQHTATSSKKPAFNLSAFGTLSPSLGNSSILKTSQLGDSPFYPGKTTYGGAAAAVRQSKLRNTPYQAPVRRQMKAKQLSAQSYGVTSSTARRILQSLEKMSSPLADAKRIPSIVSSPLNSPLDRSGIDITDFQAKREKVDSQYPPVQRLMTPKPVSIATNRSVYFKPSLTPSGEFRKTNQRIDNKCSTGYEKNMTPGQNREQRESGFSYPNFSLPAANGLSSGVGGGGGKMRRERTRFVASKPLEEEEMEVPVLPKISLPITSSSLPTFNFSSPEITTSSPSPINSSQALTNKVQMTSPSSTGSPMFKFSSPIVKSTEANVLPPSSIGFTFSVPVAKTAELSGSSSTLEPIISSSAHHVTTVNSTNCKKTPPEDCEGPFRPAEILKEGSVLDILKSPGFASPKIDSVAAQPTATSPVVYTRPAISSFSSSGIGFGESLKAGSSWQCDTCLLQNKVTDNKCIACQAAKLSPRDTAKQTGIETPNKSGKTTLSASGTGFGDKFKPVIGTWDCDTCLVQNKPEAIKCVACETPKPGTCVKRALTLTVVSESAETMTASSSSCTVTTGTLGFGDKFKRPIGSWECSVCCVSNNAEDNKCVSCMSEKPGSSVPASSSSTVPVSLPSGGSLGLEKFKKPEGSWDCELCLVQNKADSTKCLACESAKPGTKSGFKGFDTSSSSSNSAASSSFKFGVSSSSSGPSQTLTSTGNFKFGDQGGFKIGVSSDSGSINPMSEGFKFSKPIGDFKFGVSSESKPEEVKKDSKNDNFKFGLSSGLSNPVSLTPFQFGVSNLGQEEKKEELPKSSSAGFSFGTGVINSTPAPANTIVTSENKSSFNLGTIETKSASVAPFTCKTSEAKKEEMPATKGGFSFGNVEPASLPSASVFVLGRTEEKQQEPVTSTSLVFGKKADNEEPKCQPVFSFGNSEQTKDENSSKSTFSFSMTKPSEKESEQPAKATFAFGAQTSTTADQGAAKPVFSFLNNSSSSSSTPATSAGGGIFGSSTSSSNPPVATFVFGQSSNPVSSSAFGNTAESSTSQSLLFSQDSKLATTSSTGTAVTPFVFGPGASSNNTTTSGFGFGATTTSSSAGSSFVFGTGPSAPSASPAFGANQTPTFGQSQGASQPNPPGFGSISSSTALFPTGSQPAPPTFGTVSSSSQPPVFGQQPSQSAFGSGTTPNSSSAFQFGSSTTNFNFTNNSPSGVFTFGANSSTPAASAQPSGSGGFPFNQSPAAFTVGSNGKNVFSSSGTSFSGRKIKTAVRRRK

Experiments:
GFP-TDP-43-mNLS = GFP-TDP-43-mNLS (UniProt Q13148); assay: co-immunoprecipitation from HEK293 cells, immunoblot
Nup153 = Nup153 (UniProt P49790); assay: as above

binding (GFP-TDP-43-mNLS) | binding (Nup153) | Binder
binds | binds | mCherry-tagged Nup50-N (1-210) (protein, not shown: large carriers) MAKRNAEKELTDRNWDQEDEAEDVGTFSMASEEVLKNRAIKKAKRRNVGFESDTGGAFKGFKGLVVPSGGGRFSGFGSGAGGKPLEGLSNGNNITSAPPFASAKAAADPKVAFGSLAANGPTTLVDKVSNPKTNGDSQQPSSSGLASSKACVGNAYHKQLAALNCSVRDWIVKHVNTNPLCDLTPIFKDYEKYLANIEQQHGNSGRNSES
binds | binds | LAALNCSVRDWIVKHVNTNPLCDLTPIFKDYEKYLANIEQQ (peptide, not shown: large carriers) [mCherry-tagged Nup50 160-200]
